Laboratory results from paper PMC12390936.
No constants are given. Whether binding was seen depends on the method and setting. Binding seen in cells or lysates may run through a third protein. Some entries that bind do so weakly or less than the wild type.

Chains of the proteins cited; added tags and fusions are not shown. Lines headed by an entry give the natural chain unless they say otherwise; changes in a name come on top. Residues count along the entry.
UniProt P08621: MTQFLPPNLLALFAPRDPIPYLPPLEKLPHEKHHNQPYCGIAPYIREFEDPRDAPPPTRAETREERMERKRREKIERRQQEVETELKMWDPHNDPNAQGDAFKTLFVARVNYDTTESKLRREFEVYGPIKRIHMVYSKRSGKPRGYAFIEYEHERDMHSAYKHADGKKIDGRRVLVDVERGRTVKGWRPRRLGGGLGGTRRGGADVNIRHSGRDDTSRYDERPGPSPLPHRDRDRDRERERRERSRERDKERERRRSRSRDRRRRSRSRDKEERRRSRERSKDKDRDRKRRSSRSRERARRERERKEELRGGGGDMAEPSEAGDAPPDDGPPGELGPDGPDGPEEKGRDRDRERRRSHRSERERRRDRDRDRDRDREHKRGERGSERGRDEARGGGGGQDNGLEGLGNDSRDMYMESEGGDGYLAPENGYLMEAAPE
UniProt P09012: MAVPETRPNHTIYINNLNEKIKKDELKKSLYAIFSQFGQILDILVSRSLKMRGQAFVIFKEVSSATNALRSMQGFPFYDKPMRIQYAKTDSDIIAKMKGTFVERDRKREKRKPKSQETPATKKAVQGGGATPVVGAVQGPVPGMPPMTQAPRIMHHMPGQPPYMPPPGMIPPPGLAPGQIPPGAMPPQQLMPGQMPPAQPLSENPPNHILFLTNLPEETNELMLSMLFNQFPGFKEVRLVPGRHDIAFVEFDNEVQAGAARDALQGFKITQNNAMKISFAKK
UniProt Q16637: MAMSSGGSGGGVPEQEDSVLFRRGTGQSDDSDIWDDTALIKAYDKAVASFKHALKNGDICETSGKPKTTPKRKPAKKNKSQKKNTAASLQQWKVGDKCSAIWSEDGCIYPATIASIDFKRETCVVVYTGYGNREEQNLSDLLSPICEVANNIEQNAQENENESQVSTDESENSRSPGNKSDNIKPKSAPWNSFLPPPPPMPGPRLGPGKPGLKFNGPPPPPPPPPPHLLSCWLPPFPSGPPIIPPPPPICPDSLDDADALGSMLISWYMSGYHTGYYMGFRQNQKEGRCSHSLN
UniProt Q8TEQ6: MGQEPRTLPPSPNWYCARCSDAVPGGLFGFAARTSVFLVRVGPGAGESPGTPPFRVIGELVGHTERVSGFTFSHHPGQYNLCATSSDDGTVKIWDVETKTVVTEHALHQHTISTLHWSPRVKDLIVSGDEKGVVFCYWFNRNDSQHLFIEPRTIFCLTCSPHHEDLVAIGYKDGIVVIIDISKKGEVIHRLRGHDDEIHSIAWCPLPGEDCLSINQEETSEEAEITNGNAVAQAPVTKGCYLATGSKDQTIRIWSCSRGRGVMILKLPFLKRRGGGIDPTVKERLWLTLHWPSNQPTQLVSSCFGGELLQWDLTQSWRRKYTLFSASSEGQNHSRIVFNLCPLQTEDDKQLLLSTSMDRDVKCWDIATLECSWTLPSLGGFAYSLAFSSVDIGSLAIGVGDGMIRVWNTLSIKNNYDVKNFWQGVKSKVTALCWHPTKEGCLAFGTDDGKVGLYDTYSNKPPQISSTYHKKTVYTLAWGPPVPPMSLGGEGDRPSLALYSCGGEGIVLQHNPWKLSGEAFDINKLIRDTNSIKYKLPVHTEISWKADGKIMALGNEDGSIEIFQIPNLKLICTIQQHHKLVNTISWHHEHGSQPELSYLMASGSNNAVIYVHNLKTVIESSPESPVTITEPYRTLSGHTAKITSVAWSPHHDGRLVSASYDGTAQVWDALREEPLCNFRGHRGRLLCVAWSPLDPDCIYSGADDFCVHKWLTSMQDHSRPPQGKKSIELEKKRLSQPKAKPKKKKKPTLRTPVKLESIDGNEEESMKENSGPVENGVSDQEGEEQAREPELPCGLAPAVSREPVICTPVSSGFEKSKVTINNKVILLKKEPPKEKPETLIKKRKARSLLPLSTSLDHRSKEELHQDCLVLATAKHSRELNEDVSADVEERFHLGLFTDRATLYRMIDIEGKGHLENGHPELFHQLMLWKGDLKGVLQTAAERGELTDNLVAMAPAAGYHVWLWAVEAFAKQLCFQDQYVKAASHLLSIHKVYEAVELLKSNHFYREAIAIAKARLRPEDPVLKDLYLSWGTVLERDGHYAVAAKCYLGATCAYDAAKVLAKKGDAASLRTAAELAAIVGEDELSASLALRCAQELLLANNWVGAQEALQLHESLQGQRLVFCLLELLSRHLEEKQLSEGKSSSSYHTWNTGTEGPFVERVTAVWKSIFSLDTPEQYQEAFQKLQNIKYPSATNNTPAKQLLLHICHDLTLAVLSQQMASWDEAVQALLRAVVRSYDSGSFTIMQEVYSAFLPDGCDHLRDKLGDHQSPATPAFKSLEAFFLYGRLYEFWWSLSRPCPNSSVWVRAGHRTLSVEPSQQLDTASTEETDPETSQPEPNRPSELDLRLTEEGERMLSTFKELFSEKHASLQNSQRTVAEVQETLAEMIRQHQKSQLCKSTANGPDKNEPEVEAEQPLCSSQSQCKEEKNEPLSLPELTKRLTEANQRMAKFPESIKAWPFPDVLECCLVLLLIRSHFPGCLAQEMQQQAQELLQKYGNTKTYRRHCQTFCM
UniProt P09234, residues 135-159: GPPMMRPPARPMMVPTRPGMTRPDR

Experiments:
[1] = target: U1-70K (human (endogenous in HeLa)) (UniProt P08621); test: co-IP; cytoplasmic HeLa extract treated with RNase A/T1 (0.02 mg/ml RNase A, 50 U/ml RNase T1) on ice for 30 min before immunoprecipitation; Western blot
[2] = target: U1A (human (endogenous in HeLa)) (UniProt P09012); test: co-IP; anti-U1-70K, anti-U1C or anti-U1A antibody on Dynabeads Protein G; cytoplasmic HeLa extract (2 mg/ml) in RSB-100 with 0.1% NP-40, 1 h at 4 °C; washes in RSB-200 with 0.02% NP-40; Western blot
[3] = target: U1-70K (human (endogenous in HeLa)) (UniProt P08621); test: as above
[4] = target: SMN (human (endogenous in HeLa)) (UniProt Q16637); test: co-IP; anti-SMN or anti-Gemin5 antibody on Dynabeads Protein G; cytoplasmic HeLa extract (2 mg/ml) in RSB-100 with 0.1% NP-40, 1 h at 4 °C; washes in RSB-200 with 0.02% NP-40; Western blot
[5] = target: Gemin5 (human (endogenous in HeLa)) (UniProt Q8TEQ6); test: as above
[6] = target: U1C C-terminus domain peptide (aa 135-159) without di-methylarginine (human) (UniProt P09234); test: pull-down; biotinylated U1C peptide (0.5 nmol) on Dynabeads MyOne Streptavidin C1 in RSB-200 with 0.02% Triton X-100; HeLa cytoplasmic extract (2 mg/ml), 1 h at 4 °C; five washes in the same buffer; Western blot; only the target purified

Row | binding [1] | binding [2] | binding [3] | binding [4] | binding [5] | binding [6] | Substance
1 | binds |  |  |  |  |  | Gemin5 (from UniProt Q8TEQ6 1-1508)
2 | binds | binds | binds |  |  |  | SMN (from UniProt Q16637 1-294)
3 |  |  |  | binds | binds | no binding | U1-70K (from UniProt P08621 1-437)
4 |  |  |  | binds | binds | no binding | U1A (from UniProt P09012 1-282)
